Taken from: PubChem BioAssay AID1224830 (NIAID, 2016)

- Purpose: 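Genes whose knock-down alters the TNF-alpha reporter response to LPS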 (primary screen)
- System: human THP-1 monocytic leukaemia cells, TNF dual-luciferase reporter clone, PMA-differentiated to macrophage-like cells
- Reagents: siRNA pool against human genes, 50 nM
- Timing: LPS for 4 h, given about 3 days after siRNA transfection
- Treatment: bacterial LPS (TLR4 ligand), 10 ng/ml
- Read-out: 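Ratio of firefly to renilla light, scaled to the plate median and expressed as a robust z-score per replicate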
- Reading the numbers: TNF reporter robust z-score: higher = stronger TNF reporter response to LPS
- Rule for the call: 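a well is active when its z-score exceeds 2.8 or falls below -1.5; control wells carry no call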
The deposit covers about 18,000 reagents; this is an unselected part. Over the whole deposit, about 2,900 (16%) got an active call. 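Calls are made per well; low scores hint the gene aids the LPS response, high scores that it dampens it.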 Repeated entries: four replicate wells of each siRNA pool.

Which result is listed for IFTAP (intraflagellar transport associated protein)?
TNF reporter robust z-score: -0.01; activity call: inactive

What did the screen give for IFTAP (intraflagellar transport associated protein)?
TNF reporter robust z-score: -0.42; activity call: inactive

What did the screen give for IFTAP (intraflagellar transport associated protein)?
TNF reporter robust z-score: 0.76; activity call: inactive

For IFTAP (intraflagellar transport associated protein), how do the results read?
TNF reporter robust z-score: 0.27; activity call: inactive

What is on record for WTAP (WT1 associated protein)?
TNF reporter robust z-score: 0.05; activity call: inactive

What did the screen give for WTAP (WT1 associated protein)?
TNF reporter robust z-score: 0; activity call: inactive

With WTAP (WT1 associated protein), how do the results read?
TNF reporter robust z-score: -0.59; activity call: inactive

What is on record for WTAP (WT1 associated protein)?
TNF reporter robust z-score: 3.36; activity call: active

For ZNF117 (zinc finger protein 117), what does the deposit list?
TNF reporter robust z-score: -1.08; activity call: inactive

What did the screen give for ZNF117 (zinc finger protein 117)?
TNF reporter robust z-score: -0.6; activity call: inactive

For ZNF117 (zinc finger protein 117), how do the results read?
TNF reporter robust z-score: -0.77; activity call: inactive

How did the screen score ZNF117 (zinc finger protein 117)?
TNF reporter robust z-score: 0.19; activity call: inactive

With REV1 (REV1 DNA directed polymerase), what was measured?
TNF reporter robust z-score: -0.07; activity call: inactive

What is on record for REV1 (REV1 DNA directed polymerase)?
TNF reporter robust z-score: -0.26; activity call: inactive

Which result is listed for REV1 (REV1 DNA directed polymerase)?
TNF reporter robust z-score: 0.23; activity call: inactive

How did the screen score REV1 (REV1 DNA directed polymerase)?
TNF reporter robust z-score: 0.36; activity call: inactive

Which result is listed for SCAPER (S-phase cyclin A associated protein in the ER)?
TNF reporter robust z-score: -0.16; activity call: inactive

For SCAPER (S-phase cyclin A associated protein in the ER), how do the results read?
TNF reporter robust z-score: 0.48; activity call: inactive

What did the screen give for SCAPER (S-phase cyclin A associated protein in the ER)?
TNF reporter robust z-score: -0.8; activity call: inactive

With SCAPER (S-phase cyclin A associated protein in the ER), what was measured?
TNF reporter robust z-score: -1.02; activity call: inactive

Which result is listed for CIITA (class II major histocompatibility complex transactivator)?
TNF reporter robust z-score: -0.45; activity call: inactive

What did the screen give for CIITA (class II major histocompatibility complex transactivator)?
TNF reporter robust z-score: 0.62; activity call: inactive

With CIITA (class II major histocompatibility complex transactivator), how do the results read?
TNF reporter robust z-score: 0.74; activity call: inactive

What is on record for CIITA (class II major histocompatibility complex transactivator)?
TNF reporter robust z-score: 1.89; activity call: inactive

With SLC7A9, how do the results read?
TNF reporter robust z-score: -1.32; activity call: inactive

How did the screen score SLC7A9?
TNF reporter robust z-score: -1; activity call: inactive

With SLC7A9, what was measured?
TNF reporter robust z-score: -1.14; activity call: inactive

For SLC7A9, what does the deposit list?
TNF reporter robust z-score: 0.19; activity call: inactive

What is on record for FPR1 (formyl peptide receptor 1)?
TNF reporter robust z-score: -0.02; activity call: inactive

For FPR1 (formyl peptide receptor 1), what does the deposit list?
TNF reporter robust z-score: 0.74; activity call: inactive

For FPR1 (formyl peptide receptor 1), what was measured?
TNF reporter robust z-score: 0.99; activity call: inactive

For FPR1 (formyl peptide receptor 1), what was measured?
TNF reporter robust z-score: 1.33; activity call: inactive

For KIR3DL2, how do the results read?
TNF reporter robust z-score: -0.67; activity call: inactive

How did the screen score KIR3DL2?
TNF reporter robust z-score: 0.07; activity call: inactive

For KIR3DL2, what was measured?
TNF reporter robust z-score: -0.53; activity call: inactive

What is on record for KIR3DL2?
TNF reporter robust z-score: -0.44; activity call: inactive

How did the screen score PTPRH (protein tyrosine phosphatase receptor type H)?
TNF reporter robust z-score: 0.36; activity call: inactive

Which result is listed for PTPRH (protein tyrosine phosphatase receptor type H)?
TNF reporter robust z-score: 0.42; activity call: inactive

For PTPRH (protein tyrosine phosphatase receptor type H), how do the results read?
TNF reporter robust z-score: -0.5; activity call: inactive

Which result is listed for PTPRH (protein tyrosine phosphatase receptor type H)?
TNF reporter robust z-score: 1.14; activity call: inactive

What is on record for DCTN6 (dynactin subunit 6)?
TNF reporter robust z-score: -0.32; activity call: inactive

With DCTN6 (dynactin subunit 6), what does the deposit list?
TNF reporter robust z-score: -0.16; activity call: inactive

With DCTN6 (dynactin subunit 6), what does the deposit list?
TNF reporter robust z-score: -0.13; activity call: inactive

For DCTN6 (dynactin subunit 6), what does the deposit list?
TNF reporter robust z-score: 0.05; activity call: inactive

Which result is listed for CPAP (centrosome assembly and centriole elongation protein)?
TNF reporter robust z-score: 0; activity call: inactive

Which result is listed for CPAP (centrosome assembly and centriole elongation protein)?
TNF reporter robust z-score: 0.85; activity call: inactive

With CPAP (centrosome assembly and centriole elongation protein), what does the deposit list?
TNF reporter robust z-score: -0.48; activity call: inactive

For CPAP (centrosome assembly and centriole elongation protein), how do the results read?
TNF reporter robust z-score: 0.59; activity call: inactive

Hits (from the list above):
WTAP (WT1 associated protein) — TNF reporter robust z-score = 3.36; activity call = active
